Measurements: the supplement of paper PMC12889115
This is one part of the list. Values are raw readings; no control value is given beside them.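 First-pass screen: polymyxin B was added at a level that permeabilizes the Salmonella outer membrane while sparing the inner membrane. DMSO wells, with and without polymyxin B, defined maximum growth. Because plates differed from one another, each plate's data were ranked separately and the compounds with the lowest OD600 were carried forward as hits.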

Tested on: Salmonella enterica serovar Typhimurium SL1344
Test: bacterial growth OD600 after 18 h with compound and polymyxin B; higher = more bacterial growth (less inhibition)
Details: 50 µM, Mueller-Hinton broth

Structure (SMILES) | bacterial growth OD600 (polymyxin B 1 µg/mL) | bacterial growth OD600 (polymyxin B 0.75 µg/mL)
CCOC(=O)C1(CC2CC2)CCN(S(=O)(=O)c2ccc(C)cc2)CC1 | 0.453 | –
COc1ccccc1C(=O)N(CCc1ccccc1)CC1CCCN(C)C1 (stereo not given) | 0.897 | –
Cc1cnccc1CN(C)C(=O)CC(c1ccccc1)c1ccccc1Cl (stereo not given) | 0.001 | –
CN(C)c1ccc(C(=O)NCCC2CCCCN2C)cn1 (stereo not given) | 0.952 | –
O=C(c1ccc(NCc2ccccc2)nc1)N1CCCN(c2ncccn2)CC1 | – | 0.772
O=C1CCC(C(=O)N2CCC(Cc3ccccc3)CC2)CN1CCN1CCOCC1 (stereo not given) | 1.08 | –
CC(C)c1nccn1CCCNC(=O)c1ccc(N2CC[C@H](O)C2)nc1 | 0.953 | –
CCOC(=O)C1(CCOC)CCCN(Cc2cccn2-c2ccc(Cl)cn2)C1 (stereo not given) | – | 0.77
O=C(NCCc1ccncc1)c1coc(COc2ccccc2F)n1 | 0.939 | –
COc1ccc(-c2cnnc(N3CCCC(OCc4ccccn4)C3)n2)cc1OC (stereo not given) | – | 0.989
COc1ccc(C(=O)CCC(=O)N2CCC(n3nccc3NC(=O)CC(C)C)CC2)cc1 | 1.32 | –
CCOC(=O)CC1CCCCN1C(=O)c1cn(Cc2cccc3ccccc23)nn1 (stereo not given) | 0.49 | –
O=C(NCCC1=CCCCC1)C1CC12CCN(C(=O)c1ccc(N3CCOCC3)cc1)CC2 (stereo not given) | – | 0.843
CC(=O)N1CCN(c2ncccc2CNCc2ccc(C(C)C)cc2)CC1 | – | 0.779
O=C(NC(C1CC1)C1CC1)C1CCCN(C2CCN(C(=O)C3CC3)CC2)C1 (stereo not given) | – | 0.841
COc1cccc(CN2CCN(CC3CCCCC3)C(CCO)C2)c1OC (stereo not given) | 0.907 | –
CC1(CNc2nc3nonc3nc2N2CCSCC2)COC1 | – | 0.774
COC(=O)C1CCCCN1C(=O)c1csc2nc(-c3ccccc3C)cn12 (stereo not given) | 0.811 | –
CN(Cc1ccsc1)C(=O)CC1(c2ccccc2)CC(=O)N(CCCOc2cccnc2)C1=O (stereo not given) | – | 0.682
CCn1ccnc1CN1CCCC(N2CCN(c3ccccc3OC)CC2)C1 (stereo not given) | 0.895 | –

Copied from the list.
Under bacterial growth OD600 (polymyxin B 0.75 µg/mL), CN(Cc1ccsc1)C(=O)CC1(c2ccccc2)CC(=O)N(CCCOc2cccnc2)C1=O (stereo not given) is listed with 0.682
Under bacterial growth OD600 (polymyxin B 1 µg/mL), O=C1CCC(C(=O)N2CCC(Cc3ccccc3)CC2)CN1CCN1CCOCC1 (stereo not given) is listed with 1.08
